Experimental data: paper PMC5322531
Results are given in words; binding and its absence hold for the method and conditions named. For some of these results: In cells and extracts the contact can be indirect. Sequences can lack the tags named with a protein. Some binding calls cover weakened binding; strength is not graded here.

By UniProt entry, the sequences of proteins in these tests, tags left out. Residues count along the entry.
UniProt Q9Y4D7, residues 47-1925: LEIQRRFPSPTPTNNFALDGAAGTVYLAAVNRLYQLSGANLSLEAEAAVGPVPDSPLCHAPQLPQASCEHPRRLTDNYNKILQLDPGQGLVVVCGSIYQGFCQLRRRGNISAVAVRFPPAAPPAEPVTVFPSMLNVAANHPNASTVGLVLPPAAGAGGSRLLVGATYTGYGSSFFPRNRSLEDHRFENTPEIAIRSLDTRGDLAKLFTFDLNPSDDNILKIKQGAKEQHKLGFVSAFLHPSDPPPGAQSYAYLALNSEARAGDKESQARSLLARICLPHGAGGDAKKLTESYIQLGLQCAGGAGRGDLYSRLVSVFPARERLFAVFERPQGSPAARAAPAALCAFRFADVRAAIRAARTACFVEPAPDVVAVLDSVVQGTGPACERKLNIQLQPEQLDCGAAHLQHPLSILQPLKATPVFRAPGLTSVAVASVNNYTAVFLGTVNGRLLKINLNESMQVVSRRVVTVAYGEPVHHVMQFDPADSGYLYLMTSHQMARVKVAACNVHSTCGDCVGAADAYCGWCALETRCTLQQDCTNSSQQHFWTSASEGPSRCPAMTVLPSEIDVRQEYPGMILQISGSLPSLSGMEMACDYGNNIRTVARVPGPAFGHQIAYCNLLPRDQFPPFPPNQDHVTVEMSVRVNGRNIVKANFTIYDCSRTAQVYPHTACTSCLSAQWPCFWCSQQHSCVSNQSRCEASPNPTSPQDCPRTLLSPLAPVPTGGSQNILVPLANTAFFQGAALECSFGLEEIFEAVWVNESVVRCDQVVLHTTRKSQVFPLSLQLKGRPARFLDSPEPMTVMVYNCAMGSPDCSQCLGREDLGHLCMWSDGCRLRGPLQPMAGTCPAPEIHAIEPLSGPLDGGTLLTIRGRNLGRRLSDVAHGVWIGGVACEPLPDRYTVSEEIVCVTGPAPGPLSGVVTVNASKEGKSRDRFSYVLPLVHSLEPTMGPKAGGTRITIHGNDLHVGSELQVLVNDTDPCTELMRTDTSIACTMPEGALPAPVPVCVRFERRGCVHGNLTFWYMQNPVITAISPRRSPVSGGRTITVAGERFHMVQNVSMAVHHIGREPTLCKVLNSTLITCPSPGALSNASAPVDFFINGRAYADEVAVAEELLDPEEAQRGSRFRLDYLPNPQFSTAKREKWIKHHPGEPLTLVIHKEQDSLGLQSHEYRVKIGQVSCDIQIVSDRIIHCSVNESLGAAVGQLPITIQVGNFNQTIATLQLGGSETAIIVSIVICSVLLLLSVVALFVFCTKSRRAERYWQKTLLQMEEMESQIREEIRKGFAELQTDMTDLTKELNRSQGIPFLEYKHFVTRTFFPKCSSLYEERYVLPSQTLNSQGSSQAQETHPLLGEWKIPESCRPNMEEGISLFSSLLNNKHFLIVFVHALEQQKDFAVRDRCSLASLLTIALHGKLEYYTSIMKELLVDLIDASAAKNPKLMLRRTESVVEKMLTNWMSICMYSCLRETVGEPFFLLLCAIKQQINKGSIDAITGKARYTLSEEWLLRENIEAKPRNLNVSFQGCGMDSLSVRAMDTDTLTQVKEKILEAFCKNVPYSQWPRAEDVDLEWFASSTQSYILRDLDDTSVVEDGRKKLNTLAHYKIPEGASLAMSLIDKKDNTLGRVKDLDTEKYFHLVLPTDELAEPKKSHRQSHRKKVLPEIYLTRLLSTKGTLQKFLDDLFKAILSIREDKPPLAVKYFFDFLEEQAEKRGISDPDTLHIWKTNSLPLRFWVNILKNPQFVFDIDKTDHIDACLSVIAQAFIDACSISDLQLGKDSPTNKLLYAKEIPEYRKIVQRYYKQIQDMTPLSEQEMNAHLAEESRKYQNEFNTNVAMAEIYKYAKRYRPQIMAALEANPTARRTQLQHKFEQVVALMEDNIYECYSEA
UniProt O43157, residues 20-2135: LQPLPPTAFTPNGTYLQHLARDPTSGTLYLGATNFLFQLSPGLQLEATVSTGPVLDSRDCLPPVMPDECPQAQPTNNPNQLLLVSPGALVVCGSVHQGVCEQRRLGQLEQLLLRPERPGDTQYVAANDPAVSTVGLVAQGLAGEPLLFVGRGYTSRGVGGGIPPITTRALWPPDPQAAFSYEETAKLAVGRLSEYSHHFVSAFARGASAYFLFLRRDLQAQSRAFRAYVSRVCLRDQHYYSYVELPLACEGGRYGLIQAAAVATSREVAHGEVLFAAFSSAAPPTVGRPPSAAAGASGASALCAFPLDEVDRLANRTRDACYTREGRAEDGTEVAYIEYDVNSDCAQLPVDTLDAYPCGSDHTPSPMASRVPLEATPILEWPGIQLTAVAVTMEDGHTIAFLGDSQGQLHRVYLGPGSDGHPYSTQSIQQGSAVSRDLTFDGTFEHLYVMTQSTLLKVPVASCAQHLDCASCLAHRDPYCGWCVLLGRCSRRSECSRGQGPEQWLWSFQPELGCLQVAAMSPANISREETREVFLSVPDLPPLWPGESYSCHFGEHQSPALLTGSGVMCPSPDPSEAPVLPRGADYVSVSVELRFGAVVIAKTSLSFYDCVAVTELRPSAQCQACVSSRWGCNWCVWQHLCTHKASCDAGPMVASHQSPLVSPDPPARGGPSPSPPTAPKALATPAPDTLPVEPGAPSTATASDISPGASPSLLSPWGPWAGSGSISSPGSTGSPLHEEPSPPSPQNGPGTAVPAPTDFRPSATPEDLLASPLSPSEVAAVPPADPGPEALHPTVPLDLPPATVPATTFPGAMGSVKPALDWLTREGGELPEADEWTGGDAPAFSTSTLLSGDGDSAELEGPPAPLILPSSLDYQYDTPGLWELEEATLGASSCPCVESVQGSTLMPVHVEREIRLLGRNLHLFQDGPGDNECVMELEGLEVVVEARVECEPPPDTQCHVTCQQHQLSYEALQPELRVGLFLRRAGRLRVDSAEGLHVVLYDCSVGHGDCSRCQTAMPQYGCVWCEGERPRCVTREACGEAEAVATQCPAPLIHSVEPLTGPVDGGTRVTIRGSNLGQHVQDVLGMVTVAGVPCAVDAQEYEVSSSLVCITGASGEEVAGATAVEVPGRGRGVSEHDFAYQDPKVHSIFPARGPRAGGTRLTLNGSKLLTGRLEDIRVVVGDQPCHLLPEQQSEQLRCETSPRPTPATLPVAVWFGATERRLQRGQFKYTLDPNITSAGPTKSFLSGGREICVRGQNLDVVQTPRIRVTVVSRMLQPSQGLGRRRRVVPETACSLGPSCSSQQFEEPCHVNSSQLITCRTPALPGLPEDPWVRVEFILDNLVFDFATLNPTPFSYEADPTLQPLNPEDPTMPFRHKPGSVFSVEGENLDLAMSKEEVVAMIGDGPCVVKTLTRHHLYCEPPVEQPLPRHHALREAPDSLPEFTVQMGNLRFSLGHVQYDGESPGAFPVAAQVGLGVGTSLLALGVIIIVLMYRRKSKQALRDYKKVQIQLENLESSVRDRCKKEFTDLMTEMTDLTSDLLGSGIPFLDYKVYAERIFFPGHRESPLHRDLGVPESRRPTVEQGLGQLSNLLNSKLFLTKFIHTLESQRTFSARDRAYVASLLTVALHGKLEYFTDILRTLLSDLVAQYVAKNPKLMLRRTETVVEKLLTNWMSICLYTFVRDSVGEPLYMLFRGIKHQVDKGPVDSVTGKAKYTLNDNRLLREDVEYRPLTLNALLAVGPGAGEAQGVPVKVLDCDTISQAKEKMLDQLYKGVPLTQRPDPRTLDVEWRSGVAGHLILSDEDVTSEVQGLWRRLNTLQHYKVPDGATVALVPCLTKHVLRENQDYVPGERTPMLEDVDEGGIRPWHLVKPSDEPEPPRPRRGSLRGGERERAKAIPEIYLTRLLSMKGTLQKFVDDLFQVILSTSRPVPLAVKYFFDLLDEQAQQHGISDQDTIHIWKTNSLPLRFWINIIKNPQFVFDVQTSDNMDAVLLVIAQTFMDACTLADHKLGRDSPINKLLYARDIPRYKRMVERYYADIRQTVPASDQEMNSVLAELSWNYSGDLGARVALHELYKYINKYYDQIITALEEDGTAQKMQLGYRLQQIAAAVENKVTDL
UniProt O15031, residues 20-1838: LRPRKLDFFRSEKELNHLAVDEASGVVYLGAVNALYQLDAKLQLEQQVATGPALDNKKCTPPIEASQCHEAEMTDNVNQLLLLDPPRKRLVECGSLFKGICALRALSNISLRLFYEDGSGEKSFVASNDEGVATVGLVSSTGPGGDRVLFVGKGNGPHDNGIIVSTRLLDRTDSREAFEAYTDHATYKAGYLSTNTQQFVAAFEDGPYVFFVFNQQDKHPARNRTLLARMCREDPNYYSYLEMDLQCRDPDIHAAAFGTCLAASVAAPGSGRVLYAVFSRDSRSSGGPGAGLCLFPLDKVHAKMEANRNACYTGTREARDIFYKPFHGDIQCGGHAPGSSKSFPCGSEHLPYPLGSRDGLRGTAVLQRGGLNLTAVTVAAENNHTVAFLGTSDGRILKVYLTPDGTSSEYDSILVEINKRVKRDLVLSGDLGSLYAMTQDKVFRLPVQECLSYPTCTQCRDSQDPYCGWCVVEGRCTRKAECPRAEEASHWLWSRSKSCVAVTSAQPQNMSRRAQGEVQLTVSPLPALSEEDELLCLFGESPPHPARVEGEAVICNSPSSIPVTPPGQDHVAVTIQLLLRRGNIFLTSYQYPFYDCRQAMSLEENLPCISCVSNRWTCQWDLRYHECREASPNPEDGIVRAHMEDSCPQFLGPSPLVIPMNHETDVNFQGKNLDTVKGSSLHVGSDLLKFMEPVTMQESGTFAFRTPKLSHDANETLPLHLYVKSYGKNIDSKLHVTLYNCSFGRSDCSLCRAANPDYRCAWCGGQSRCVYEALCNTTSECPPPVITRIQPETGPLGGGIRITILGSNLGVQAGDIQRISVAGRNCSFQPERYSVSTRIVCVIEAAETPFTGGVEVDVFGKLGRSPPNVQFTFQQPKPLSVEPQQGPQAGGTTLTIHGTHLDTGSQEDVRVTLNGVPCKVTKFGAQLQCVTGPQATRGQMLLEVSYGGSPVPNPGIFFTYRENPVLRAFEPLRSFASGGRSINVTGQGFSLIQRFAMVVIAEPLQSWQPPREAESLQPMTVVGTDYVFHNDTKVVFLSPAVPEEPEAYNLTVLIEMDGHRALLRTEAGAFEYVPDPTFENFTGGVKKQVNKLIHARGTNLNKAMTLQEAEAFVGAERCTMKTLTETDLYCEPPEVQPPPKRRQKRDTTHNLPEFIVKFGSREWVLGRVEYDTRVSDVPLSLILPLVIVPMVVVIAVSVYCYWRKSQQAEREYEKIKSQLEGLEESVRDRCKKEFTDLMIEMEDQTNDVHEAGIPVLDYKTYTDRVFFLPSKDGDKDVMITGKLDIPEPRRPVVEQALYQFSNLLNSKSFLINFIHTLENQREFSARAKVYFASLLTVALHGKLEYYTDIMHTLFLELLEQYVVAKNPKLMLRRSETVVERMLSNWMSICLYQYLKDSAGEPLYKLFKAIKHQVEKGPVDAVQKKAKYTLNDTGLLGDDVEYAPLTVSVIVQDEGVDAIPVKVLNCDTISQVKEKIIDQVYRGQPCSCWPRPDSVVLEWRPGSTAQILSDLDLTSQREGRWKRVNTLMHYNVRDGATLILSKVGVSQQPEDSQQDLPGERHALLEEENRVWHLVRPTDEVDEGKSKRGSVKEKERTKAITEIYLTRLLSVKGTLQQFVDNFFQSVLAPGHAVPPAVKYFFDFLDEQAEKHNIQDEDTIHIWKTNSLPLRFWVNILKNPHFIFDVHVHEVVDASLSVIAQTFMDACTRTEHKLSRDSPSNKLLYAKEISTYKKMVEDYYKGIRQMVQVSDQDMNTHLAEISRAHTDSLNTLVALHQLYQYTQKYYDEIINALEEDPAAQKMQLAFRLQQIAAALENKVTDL

T1: FLAG-GIPC1 (UniProt O14908)
T1 sequence: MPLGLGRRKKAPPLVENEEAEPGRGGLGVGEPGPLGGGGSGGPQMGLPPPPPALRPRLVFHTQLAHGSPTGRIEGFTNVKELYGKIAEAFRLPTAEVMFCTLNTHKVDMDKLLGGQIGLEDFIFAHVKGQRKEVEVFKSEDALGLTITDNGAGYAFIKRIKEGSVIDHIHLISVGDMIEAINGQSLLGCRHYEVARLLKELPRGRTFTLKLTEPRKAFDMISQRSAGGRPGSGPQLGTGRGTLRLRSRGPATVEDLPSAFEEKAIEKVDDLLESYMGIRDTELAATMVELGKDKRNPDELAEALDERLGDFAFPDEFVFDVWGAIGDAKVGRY


Tests used:
FLAG-GIPC1 = target: T1, FLAG-GIPC1; assay: co-IP; HEK293T cells transfected with Flag-GIPC1 and/or VSV-tagged plexins; lysates 2 days after transfection immunoprecipitated with ANTI-FLAG M2 Affinity Gel or VSV-G tag antibody agarose, western blot; interaction said to be ligand-independent
[1] = target: VSV-Plexin-D1 on COS7 cells (human) (UniProt Q9Y4D7); assay: binding of an alkaline phosphatase-tagged ligand to transfected cells; AP-Sema3E (conditioned medium of HEK293T cells) on transfected COS7 cells, conventional methods (ref. 16)

| Molecule | binding (FLAG-GIPC1) | binding [1] |
| --- | --- | --- |
| VSV-PlexinB1 (from UniProt O43157 20-2135) (receptor) | no binding |  |
| VSV-PlexinB2 (from UniProt O15031 20-1838) (receptor) | no binding |  |
| VSV-PlexinB3 (from UniProt Q9ULL4 45-1909) (receptor) | no binding |  |
| mouse AP-Sema3E-6xHis (ligand, UniProt P70275 26-775) ANPSYPRLRLSHKELLELNRTSIFQSPLGFLDLHTMLLDEYQERLFVGGRDLVYSLNLERVSDGYREIYWPSTAVKVEECIMKGKDANECANYIRVLHHYNRTHLLTCATGAFDPHCAFIRVGHHSEEPLFHLESHRSERGRGRCPFDPNSSFVSTLVGNELFAGLYSDYWGRDSAIFRSMGKLGHIRTEHDDERLLKEPKFVGSYMIPDNEDRDDNKMYFFFTEKALEAENNAHTIYTRVGRLCVNDMGGQRILVNKWSTFLKARLVCSVPGMNGIDTYFDELEDVFLLPTRDPKNPVIFGLFNTTSNIFRGHAVCVYHMSSIREAFNGPYAHKEGPEYHWSLYEGKVPYPRPGSCASKVNGGKYGTTKDYPDDAIRFARMHPLMYQPIKPVHKKPILVKTDGKYNLRQLAVDRVEAEDGQYDVLFIGTDTGIVLKVITIYNQETEWMEEVILEELQIFKDPAPIISMEISSKRQQLYIGSASAVAQVRFHHCDMYGSACADCCLARDPYCAWDGISCSRYYPTGAHAKRRFRRQDVRHGNAAQQCFGQQFVGDALDRTEERLAYGIESNSTLLECTPRSLQAKVIWFVQKGRDVRKEEVKTDDRVVKMDLGLLFLRVRKSDAGTYFCQTVEHNFVHTVRKITLEVVEEHKVEGMFHKDHEEERHHKMPCPPLSGMSQGTKPWYKEFLQLIGYSNFQRVEEYCEKVWCTDKKRKKLKMSPSKWKYANPQEKRLRSKAEHFRLPRHTLLS |  | binds |
